The term Ki denotes a dissociation constant, usually derived from enzyme kinetics or from competition with a known ligand. Read a low Ki as higher affinity.

Amino acid sequences for entries named in this document (tags omitted). Residues count along the entry.
UniProt A6I4C9, 1-355: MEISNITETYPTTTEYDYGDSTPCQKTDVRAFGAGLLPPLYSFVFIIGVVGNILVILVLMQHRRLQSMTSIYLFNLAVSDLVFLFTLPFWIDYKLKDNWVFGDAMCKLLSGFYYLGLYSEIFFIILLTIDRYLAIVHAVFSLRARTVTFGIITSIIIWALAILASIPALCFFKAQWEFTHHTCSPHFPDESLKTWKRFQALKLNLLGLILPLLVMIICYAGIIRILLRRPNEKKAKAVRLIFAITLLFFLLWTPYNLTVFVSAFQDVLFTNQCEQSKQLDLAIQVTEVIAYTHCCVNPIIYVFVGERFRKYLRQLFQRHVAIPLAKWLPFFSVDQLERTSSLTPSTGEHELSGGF

The structures appear in SMILES notation.

The conditions of data set [1]: rat, in vivo, sc.
Data set [2] deals with rat CCR1 receptor (Rattus norvegicus, UniProt A6I4C9). In words: cell-based.

On to `C[C@@H]1CN(Cc2ccc(F)cc2)CCN1C(=O)COc1ccc(Cl)cc1NC(N)=O` [(2R)-1-((4-chloro-2-(ureido)phenoxy)methyl)carbonyl-2-methyl-4-(4-fluorobenzyl)piperazine], for which, in data set [1] (male, Lewis, 50 mg/kg), the Peak plasma levels fell in the range of 12 to 27 µM and the “plasma drug levels after 8 hours” value was in the range of 1 to 2 µM. Moreover, in data set [1], the Absorption result is listed as “relatively rapid”. In addition, in data set [1] (50 mg/kg), the “drug levels over a 24 hour period” value was “adequate drug levels”. Besides, the affinity in data set [2], expressed as Ki, was 121 ± 60 nM.
